{
  "sequences": {"note": "By UniProt entry, the sequences of proteins in these tests, tags left out. Residues count along the entry.", "UniProt Q7JQ32, residues 20-1525": "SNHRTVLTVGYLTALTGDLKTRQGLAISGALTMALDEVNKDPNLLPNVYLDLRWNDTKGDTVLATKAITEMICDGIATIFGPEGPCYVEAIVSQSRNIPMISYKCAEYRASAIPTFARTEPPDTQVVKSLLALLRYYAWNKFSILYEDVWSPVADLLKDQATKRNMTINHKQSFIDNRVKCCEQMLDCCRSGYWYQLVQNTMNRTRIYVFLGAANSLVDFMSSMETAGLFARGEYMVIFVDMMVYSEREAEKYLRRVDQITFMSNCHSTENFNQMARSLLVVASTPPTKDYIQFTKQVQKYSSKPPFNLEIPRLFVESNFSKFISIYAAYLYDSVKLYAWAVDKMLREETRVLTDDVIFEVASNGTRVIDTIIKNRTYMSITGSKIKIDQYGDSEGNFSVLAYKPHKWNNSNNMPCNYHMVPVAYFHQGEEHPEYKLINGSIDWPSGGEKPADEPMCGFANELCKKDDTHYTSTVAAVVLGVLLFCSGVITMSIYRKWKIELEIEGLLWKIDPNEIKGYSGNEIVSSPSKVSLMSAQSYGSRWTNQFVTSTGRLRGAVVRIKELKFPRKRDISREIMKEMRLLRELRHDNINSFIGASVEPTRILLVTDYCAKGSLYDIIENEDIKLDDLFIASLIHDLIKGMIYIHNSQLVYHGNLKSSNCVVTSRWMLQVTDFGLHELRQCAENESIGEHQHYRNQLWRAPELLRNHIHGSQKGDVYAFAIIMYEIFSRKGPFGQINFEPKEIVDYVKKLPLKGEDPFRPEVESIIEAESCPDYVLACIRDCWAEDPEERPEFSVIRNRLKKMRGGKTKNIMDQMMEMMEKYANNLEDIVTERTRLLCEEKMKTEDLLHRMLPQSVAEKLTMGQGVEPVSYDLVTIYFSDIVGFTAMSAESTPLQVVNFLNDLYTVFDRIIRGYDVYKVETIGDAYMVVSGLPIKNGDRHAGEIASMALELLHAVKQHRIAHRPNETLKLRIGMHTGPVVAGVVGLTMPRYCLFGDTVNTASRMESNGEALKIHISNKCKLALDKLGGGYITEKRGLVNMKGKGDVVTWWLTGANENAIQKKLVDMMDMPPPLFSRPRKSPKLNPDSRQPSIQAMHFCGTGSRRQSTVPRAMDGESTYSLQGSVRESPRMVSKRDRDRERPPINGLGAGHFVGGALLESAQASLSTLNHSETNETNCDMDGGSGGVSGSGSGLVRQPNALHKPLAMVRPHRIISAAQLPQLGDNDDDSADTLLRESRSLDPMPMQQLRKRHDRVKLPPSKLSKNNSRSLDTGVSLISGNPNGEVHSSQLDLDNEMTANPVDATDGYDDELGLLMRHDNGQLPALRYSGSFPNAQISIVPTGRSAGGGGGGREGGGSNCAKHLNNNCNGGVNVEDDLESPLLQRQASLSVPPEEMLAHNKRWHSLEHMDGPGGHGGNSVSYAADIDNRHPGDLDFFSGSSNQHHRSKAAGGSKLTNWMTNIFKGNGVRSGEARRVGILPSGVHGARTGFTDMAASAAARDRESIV", "UniProt P08646": "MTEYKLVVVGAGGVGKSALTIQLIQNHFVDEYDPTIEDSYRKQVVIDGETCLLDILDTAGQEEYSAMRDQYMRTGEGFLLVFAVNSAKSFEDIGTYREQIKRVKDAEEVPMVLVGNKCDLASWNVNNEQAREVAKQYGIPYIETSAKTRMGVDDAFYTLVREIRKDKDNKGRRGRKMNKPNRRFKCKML"},
  "source": "paper PMC6999089",
  "molecular_target": "FLAG-tagged wild-type Gyc76C (Drosophila) (UniProt Q7JQ32)",
  "assay": "co-IP; S2 cells co-transfected with V5-Ras85D and FLAG-Gyc76C (WT or ΔKHD); lysis in 30 mM Tris pH 7.5, 150 mM NaCl, 1% CHAPS; IP with anti-FLAG M2 and Dynabeads M280 at 4°C; wash with 500 mM NaCl, 1% CHAPS; blot with anti-V5 and anti-FLAG",
  "note": "Results are given in words; binding and its absence hold for the method and conditions named. Binding seen in cells or lysates may run through a third protein. Some entries that bind do so weakly or less than the wild type.",
  "data": [
    {"substance": "V5-tagged Ras85D (from UniProt P08646 1-189)", "values": [
      {"measurement": "binding", "value": "binds"}
    ]}
  ]
}
